Data reported in PubChem BioAssay AID2685 (National Center for Advancing Translational Sciences (NCATS), 2010).
Some of the results follow. Further columns of the screen follow, without active or inactive calls. Compounds called inactive in the main read-out are mostly missing here. Words in brackets tell the shape of the fitted curve; partial curves, single points and poor fits give uncertain potencies.

Test: qHTS Assay for Lipid Storage Modulators in Drosophila S3 Cells;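 on cell number change: cells counted by Cell Tracker Red CMTPX staining in the red channel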
Settings: BODIPY lipid droplet fluorescence, 18-24 h; for cell number change: measured here: cell count max response, cells fed with added oleic acid
How it was run: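 Drosophila S3 cells got compounds at several concentrations plus oleic acid (400 uM solution). Laser-scanning cytometry with 488 nm excitation read lipid droplets at 500-530 nm and cells at 575-640 nm. Percent activity was relative to 20 uM Triacsin C.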

[1] = measured here: lipid fluorescence (Fed channel) AC50, cells fed with added oleic acid
[2] = measured here: cell number channel AC50, cells fed with added oleic acid

Row | SMILES | cell number change | AC50 [1] | AC50 [2]
1 | COc1cc(/C=C/C(=O)O)cc(S(=O)(=O)N(CC(C)C)CC(C)C)c1OC | 6.49% | 0.58 µM [falling, single point] | 
2 | CCOC(=O)c1ccc(COC(=O)CNC(=O)CNC(=O)c2ccc(OC)cc2)o1 | -141% | 16.4 µM [falling, partial curve] | 16.4 µM [falling, partial curve]
3 | O=C(COC(=O)c1n[nH]c2ccccc12)Nc1ccc([N+](=O)[O-])cc1 | 42.2% | 10.3 µM [rising, partial curve] | 11.6 µM [rising, partial curve]
4 | CS(=O)(=O)N1Cc2ccccc2CC1C(=O)OCC(=O)Nc1ccc2ccccc2c1 (stereo not drawn) | 40.3% | 0.461 µM [rising, full curve, poor fit] | 1.84 µM [rising, full curve, poor fit]
5 | Cc1ccc(CC(=O)Nc2cc(C)ccn2)cc1 | -25.8% | 8.2 µM [rising, partial curve] | 
6 | O=C(c1ccc(Cl)cc1)C1C2C(=O)N(c3ccccc3)C(=O)C2C2CCCN21 (stereo not drawn) | 94.3% |  | 6.51 µM [rising, partial curve]
7 | CCCC1C2C(=O)N(c3ccccc3OC)C(=O)C2ON1c1ccccc1 (stereo not drawn) | 5.33% |  | 
8 | O=C(COc1coc(CN2CCc3ccccc32)cc1=O)Nc1cccc(F)c1 | 3.37% |  | 
9 | O=[N+]([O-])c1cc(C(F)(F)F)ccc1NCCOc1ccccc1 | 13.8% | 20.6 µM [rising, single point] | 
10 | N#Cc1nc(-c2cccs2)oc1NCc1ccccc1 | 17.2% | 29.1 µM [rising, single point] | 
11 | COc1cccc(CNC(=O)Cc2ccc(-n3c(=O)[nH]c4ccccc4c3=O)cc2)c1 | 16.5% |  | 
12 | N#Cc1ccc(C(=O)NCC2CCCCC2)cc1 | -22.2% |  | 
13 | Cc1cccc(N(C(=O)Cn2nnc3ccccc32)C(C(=O)NC(C)(C)C)c2ccsc2)c1 (stereo not drawn) |  | 0.58 µM [falling, single point] | 
14 | CCc1ccccc1NC(=O)CNC(=O)c1cccc(S(=O)(=O)N2CCN(Cc3ccccc3)CC2)c1 |  |  | 1.03 µM [rising, partial curve]
15 | C=CC[N+](C)(C)C/C(Cl)=C(\Cl)c1ccccc1 | -21.5% | 20.6 µM [falling, partial curve] | 
16 | COc1ccc(C)cc1-n1nnnc1SCc1cc(=O)n2cc(C)ccc2n1 |  | 2.91 µM [falling, full curve, poor fit] | 2.91 µM [falling, partial curve, poor fit]
17 | CC1CC1C(=O)OCC(=O)NC(=O)NCc1ccco1 (stereo not drawn) | -30.6% |  | 32.6 µM [falling, single point]
18 | CN(C)c1ccc(/C=C(\C#N)C(=O)NCc2ccco2)cc1 | 22.1% | 2.31 µM [falling, partial curve, poor fit] | 
19 | CCOC(=O)C1CCN(C(=O)C2(NC(=O)Nc3ccccc3Cl)CCCCC2)CC1 | -87.2% | 1.84 µM [falling, full curve] | 1.46 µM [falling, full curve]
20 | O=C1CC(Nc2ccccc2)C(=O)N1CCc1ccccc1 (stereo not drawn) |  | 4.61 µM [rising, single point] | 1.3 µM [rising, partial curve]
21 | COc1ccc(/C=C/C=C2\NC(=S)NC2=O)cc1 | 13% |  | 
22 | CC(C)n1c(SCC(=O)N2CCCC2)nc2c1c(=O)n(C)c(=O)n2C | 14.2% | 13 µM [rising, single point] | 

Row | SMILES | cell number change | AC50 [1] | AC50 [2]
23 | Cc1cc(C(=O)OCC(=O)N2CCc3ccccc32)c(C)o1 | 18.9% |  | 
24 | COc1cc(CN2CCN(C(=O)CC(C)C)CC2)cc(OC)c1O | 8.61% |  | 
25 | CCC(CC)COC(=O)C(C#N)c1nc2ccccc2nc1N1CCN(CC)CC1 (stereo not drawn) | -32.7% | 0.731 µM [rising, full curve] | 0.651 µM [rising, full curve]
26 | Cc1ccccc1OCc1nc(-c2ccc(NC(=O)c3ccc4c(c3)OCO4)cc2)no1 | -66% | 6.51 µM [falling, full curve] | 6.51 µM [falling, partial curve]
27 | COc1ccc(C)cc1NC(=O)NNC(=O)c1ccoc1C | 48.6% | 18.4 µM [rising, partial curve, poor fit] | 9.2 µM [rising, partial curve, poor fit]
28 | COCCCNCCCCOc1ccc(C)cc1[N+](=O)[O-] | 2.1% | 16.4 µM [falling, single point] | 
29 | Cc1ccc(S(=O)(=O)N(C)c2ccccc2C(=O)NC2CCCC2)cc1 | -34.1% | 29.1 µM [falling, single point] | 16.4 µM [falling, single point]
30 | Cc1ccc(Cl)cc1S(=O)(=O)N1CCC(C(=O)NC2CCN(Cc3ccccc3)CC2)CC1 | 11.7% |  | 
31 | O=C(NC1CC1)c1cc(Cl)nc2ccccc12 | -16.8% | 3.66 µM [falling, single point] | 
32 | CCOC(=O)[C@H]1[C@H]2COc3cc(OC)ccc3[C@@H]2N2C(=O)CN(Cc3ccc(C)cc3)C(=O)[C@@]12C | -9.15% | 0.116 µM [falling, single point] | 
33 | Cc1csc2nc(O)c(C(=O)NC3CCCCC3C)c(=O)n12 (stereo not drawn) | -18.5% |  | 3.66 µM [falling, partial curve]
34 | O=Cc1ccccc1Oc1ccccc1 | -15% | 18.4 µM [falling, partial curve] | 2.06 µM [falling, partial curve]
35 | COc1ccc(N2C(=O)CSC2c2cccc(F)c2)c(OC)c1 (stereo not drawn) | -3.12% |  | 
36 | COc1ccc(CCNS(=O)(=O)c2cccc(S(=O)(=O)N3CCCC3)c2)cc1OC | -8.76% | 0.00461 µM [rising, full curve, poor fit] | 
37 | COc1cccc(OC)c1OCC(O)CN1CCN(c2ccccc2)CC1 (stereo not drawn) | 29.6% | 29.1 µM [rising, single point] | 
38 | Brc1ccc(CNCc2cccs2)cc1 | 39% |  | 0.58 µM [rising, full curve]
39 | CCOc1ccc(-c2nnc3ccc(SCC(=O)NCc4ccco4)nn23)cc1 | 1.15% | 1.46 µM [falling, full curve, poor fit] | 
40 | CCC(C)C(NC(=O)CCC(=O)OCC(=O)[C@@]1(O)CCC2[C@@H]3CCC4=CC(=O)C=C[C@]4(C)C3[C@@H](O)C[C@@]21C)C(=O)O (stereo partly drawn) | -21.3% | 0.651 µM [falling, full curve, poor fit] | 
41 | O=C(COC(=O)c1ccc[nH]c1=O)Nc1cc(S(=O)(=O)N2CCCCCC2)ccc1Cl |  |  | 2.59 µM [rising, single point]
42 | O=C(Nc1cc(Cl)ccc1Cl)C1CC(=O)N(c2ccccc2)C1 (stereo not drawn) | 17.9% |  | 
43 | CC[n+]1c(C)cc(C)n1-c1ccccc1 | 14.2% |  | 
44 | S=C(NCCN1CCOCC1)N1CCN(c2cccc(Cl)c2)CC1 | 35.8% |  | 

Rewritten comma-delimited: part of the list above
Row,SMILES,cell number change,AC50 [1],AC50 [2]
27,COc1ccc(C)cc1NC(=O)NNC(=O)c1ccoc1C,48.6%,"18.4 µM [rising, partial curve, poor fit]","9.2 µM [rising, partial curve, poor fit]"
34,O=Cc1ccccc1Oc1ccccc1,-15%,"18.4 µM [falling, partial curve]","2.06 µM [falling, partial curve]"
38,Brc1ccc(CNCc2cccs2)cc1,39%,,"0.58 µM [rising, full curve]"

Continuation.

Row | SMILES | cell number change | AC50 [1] | AC50 [2]
45 | COc1ccc2oc(=O)c(-c3csc(Nc4ccc(O)cc4)n3)cc2c1 | -64.1% | 11.6 µM [falling, partial curve] | 29.1 µM [falling, single point]
46 | Cc1cc(C)c(C(=O)COC(=O)c2cc([N+](=O)[O-])ccc2NCCO)cc1C | -20% | 32.6 µM [falling, single point] | 
47 | Cc1nn(CC(=O)N2CCN(c3ccccn3)CC2)c(=O)c2cc3sccc3n12 | 12.3% |  | 
48 | O=C(Nc1ccon1)c1ccccc1Cl | -13.1% | 0.731 µM [falling, full curve, poor fit] | 
49 | O=C(NCc1ccccc1)c1cnc(Cl)c(Cl)c1 | -10.5% | 35.5 µM [falling, single point] | 
50 | O=C(c1nn2c(C(F)(F)F)cc(-c3ccco3)nc2c1Br)N1CCCc2ccccc21 |  | 0.164 µM [rising, full curve] | 0.13 µM [rising, full curve]
51 | Cc1ccc(-n2c(C)nn(CC3CC3)c2=O)cc1 | 41.8% |  | 
52 | CN(Cc1ccccc1)C(=O)CN1CCN(C(c2ccccc2)c2ccccc2)CC1 | -31.3% | 35.5 µM [falling, single point] | 
53 | O=C(CCc1ccccc1)N1CCN(S(=O)(=O)c2cccs2)CC1 | 13.9% |  | 
54 | CCOC(=O)C(=NC(C)(C)C)NNc1cc(Cl)ccc1Cl | -24.9% |  | 
55 | CCN(CC)C(=O)c1n[nH]c(=O)c2ccccc12 | -12.7% | 0.058 µM [falling, full curve] | 
56 | Cc1nc2ccccc2c2c1C(=O)N(c1ccc(C(=O)O)cc1)C2=O | -24.8% |  | 
57 | Cc1csc(NC(=O)C2CCCN2C(=O)OCC(C)C)n1 (stereo not drawn) |  | 0.58 µM [rising, single point] | 
58 | CCCc1nc(N)c(C#N)c(-c2ccco2)c1CC | -22.7% | 29.1 µM [falling, single point] | 
59 | CC(C)(C)n1nnnc1CN1CCC(NC(=O)NC2CCCCC2)CC1 | 9.06% | 29.1 µM [rising, single point] | 
60 | Cc1ccc(C(=O)Nc2nc(=O)n(C)s2)cc1 | 9.96% | 0.82 µM [rising, single point] | 
61 | Cc1cc(=O)n(C)c2ccccc12 | 22.6% | 14.6 µM [rising, partial curve, poor fit] | 
62 | CCCc1c(C)nn(-c2ncccc2[N+](=O)[O-])c1C | -32% |  | 29.1 µM [falling, single point]
63 | Cc1nc(NC(=O)c2ccc(F)cc2)nc2cc3c(cc12)OCO3 | 62.8% | 29.1 µM [rising, single point] | 29.1 µM [rising, single point]
64 | COc1ccc(NC(=O)CSc2nnc(-c3cccs3)n2C)cc1OC | 16.1% | 0.326 µM [rising, full curve, poor fit] | 
